Data reported in patent publication US20120028913A1.
Results are given in words; binding and its absence hold for the method and conditions named. Some results given as binding are weak or reduced against the parent protein; the word gives no strength. Values belong to the binder of their own block, whether it stands above or below them.

By UniProt entry, the sequences of proteins in these tests, tags left out. Residues count along the entry.
UniProt P10145, residues 28-99: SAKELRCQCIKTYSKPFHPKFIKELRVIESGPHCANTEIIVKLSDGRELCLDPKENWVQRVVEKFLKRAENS
UniProt P51671, residues 24-97: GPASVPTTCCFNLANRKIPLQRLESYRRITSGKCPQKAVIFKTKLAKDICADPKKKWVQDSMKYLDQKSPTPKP
UniProt P48061, residues 22-89: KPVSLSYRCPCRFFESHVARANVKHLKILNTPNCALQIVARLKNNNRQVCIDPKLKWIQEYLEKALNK
UniProt P13500, residues 24-99: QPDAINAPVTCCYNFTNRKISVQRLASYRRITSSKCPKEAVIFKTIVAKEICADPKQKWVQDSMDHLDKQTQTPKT

How the values were obtained:
[1] = molecular target: human IL-8, (72 amino acids) (human) (UniProt P10145); assay: Bound chemokines (at least); screen vs control proteins
human Eotaxin (human) [2] = molecular target: human Eotaxin (human) (UniProt P51671); assay: as above
Human SDF-1α (human) [3] = molecular target: Human SDF-1α (human) (UniProt P48061); assay: as above
[4] = molecular target: Human MCP-1 (MCAF) (human) (UniProt P13500); assay: as above
human MIG (human) [5] = molecular target: T1, human MIG (human) (UniProt Q07325); assay: as above
T1 sequence (looked up): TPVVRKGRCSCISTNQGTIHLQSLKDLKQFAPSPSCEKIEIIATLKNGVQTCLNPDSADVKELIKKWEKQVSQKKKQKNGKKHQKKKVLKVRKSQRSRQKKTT

[6] = molecular target: Human MCP-1 (MCAF) (human) (UniProt P13500); assay: FIG. 1 legend
human MIG (human) [7] = molecular target: T1, human MIG (human); assay: ELISA on chemokine-coated plates (FIG. 3)
[8] = molecular target: Human MCP-1 (MCAF) (human) (UniProt P13500); assay: peptide-containing carriers, binding vs control proteins (FIG. 1)
human MIG (human) [9] = molecular target: T1, human MIG (human); assay: earlier ELISA, told with the flow chamber assay
human MIG (human) [10] = molecular target: T1, human MIG (human); assay: ELISA on chemokine-coated plates, fold over control proteins (FIG. 3)
[11] = molecular target: human IL-8, (72 amino acids) (human) (UniProt P10145); assay: as above
[12] = molecular target: Human MCP-1 (MCAF) (human) (UniProt P13500); assay: as above
human Eotaxin (human) [13] = molecular target: human Eotaxin (human) (UniProt P51671); assay: as above
Human SDF-1α (human) [14] = molecular target: Human SDF-1α (human) (UniProt P48061); assay: as above
Human SDF-1α (human) [15] = molecular target: Human SDF-1α (human) (UniProt P48061); assay: FIG. 1 legend
Human SDF-1α (human) [16] = molecular target: Human SDF-1α (human) (UniProt P48061); assay: peptide-containing carriers, binding vs control proteins (FIG. 1)

B2: BKT-P2 (peptide)
peptide: SIPSHSIHSAKAGGGSKG
modifications: biotin on Lys of C-terminal GGGSK-biotin-G
binding [1]: binds | binding [4]: binds | binding (human Eotaxin (human) [2]): binds

B3: BKT-P3 (peptide)
peptide: SIFAHQTPTHKNGGGSKG
modifications: biotin on Lys of C-terminal GGGSK-biotin-G
binding (human MIG (human) [5]): binds | binding [1]: binds | binding [4]: binds | binding [6]: binds | binding (human MIG (human) [7]): binds | binding [8]: binds | binding (human MIG (human) [9]): binds | binding (human MIG (human) [10]): binds | binding [11]: binds | binding [12]: binds | binding (human Eotaxin (human) [13]): binds | binding (Human SDF-1α (human) [14]): binds

B6: BKT-P1 (peptide)
peptide: SQTLPYSNAPSPGGGSKG
modifications: biotin on Lys of C-terminal GGGSK-biotin-G
binding (Human SDF-1α (human) [15]): binds | binding (Human SDF-1α (human) [16]): binds

Second part, the binder after the results:

binding [1]: binds | binding (human Eotaxin (human) [2]): binds | binding (Human SDF-1α (human) [3]): binds
B1: BKT-P39 (peptide)
peptide: SAGHIHEAHRPLGGGSKG
modifications: biotin on Lys of C-terminal GGGSK-biotin-G

binding (human Eotaxin (human) [2]): binds
B4: BKT-P31 (peptide)
peptide: SFWHHHSPRSPL

binding (human MIG (human) [5]): binds | binding [1]: binds | binding [4]: binds
B5: BKT-P45 (peptide)
peptide: HHFHLPKLRPPVGGGSKG
modifications: biotin on Lys of C-terminal GGGSK-biotin-G
